Reference: PMC11404314
Results are given in words; binding and its absence hold for the method and conditions named. Binding seen in cells or lysates may run through a third protein. Some results given as binding are weak or reduced against the parent protein; the word gives no strength.

Amino acid sequences for entries named in this document (tags omitted).
UniProt O35129: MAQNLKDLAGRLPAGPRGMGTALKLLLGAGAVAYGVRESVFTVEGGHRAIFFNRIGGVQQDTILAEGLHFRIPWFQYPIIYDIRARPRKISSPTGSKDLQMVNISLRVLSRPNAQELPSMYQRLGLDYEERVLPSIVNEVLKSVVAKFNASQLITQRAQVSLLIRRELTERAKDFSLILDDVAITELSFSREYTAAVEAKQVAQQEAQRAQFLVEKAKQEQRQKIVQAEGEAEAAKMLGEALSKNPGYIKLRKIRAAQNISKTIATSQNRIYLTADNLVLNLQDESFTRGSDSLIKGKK

Molecular target: prohibitin 2 (PHB2) (mouse (endogenous in HL-1)) (UniProt O35129)
Test: co-IP; HL-1 cardiomyocytes in normal (5.5 mmol/l) or high-glucose (30 mmol/l, 48 h) medium; lysate precleared, primary antibody overnight at 4 °C, protein G agarose, western blot; IgG control

B1: phosphoglycerate mutase 5 (PGAM5) (enzyme, UniProt Q8BX10 1-288)
chain: MAFRQALQLAACGLAGGSAAVLFSAVAVGKPRGGGDADTRATEPPAWTGARAGRGVWDTNWDRREPLSLINLKKRNVESGEDELTSRLDHYKAKATRHIFLIRHSQYHVDGSLEKDRTLTPLGREQAELTGLRLASLGLKFNKIVHSSMTRAVETTDIISKHLPGVSRVSTDLLREGAPIEPDPPVSHWKPEAVQYYEDGARIEAAFRNYIHRADARQEEDSYEIFICHANVIRYIVCRALQFPPEGWLRLSLNNGSITHLVIRPNGRVALRTLGDTGFMPPDKITRS
binding: binds
